These are yes or no findings as the source states them, for the method shown. In cells and extracts the contact can be indirect. Binding calls can cover weak binding; strength is not graded here.

By UniProt entry, the sequences of proteins in these tests, tags left out. Where a name states a change or a piece, a line headed by the entry shows the natural chain unless it says otherwise. Residues count along the entry.
UniProt P28799, residues 18-593: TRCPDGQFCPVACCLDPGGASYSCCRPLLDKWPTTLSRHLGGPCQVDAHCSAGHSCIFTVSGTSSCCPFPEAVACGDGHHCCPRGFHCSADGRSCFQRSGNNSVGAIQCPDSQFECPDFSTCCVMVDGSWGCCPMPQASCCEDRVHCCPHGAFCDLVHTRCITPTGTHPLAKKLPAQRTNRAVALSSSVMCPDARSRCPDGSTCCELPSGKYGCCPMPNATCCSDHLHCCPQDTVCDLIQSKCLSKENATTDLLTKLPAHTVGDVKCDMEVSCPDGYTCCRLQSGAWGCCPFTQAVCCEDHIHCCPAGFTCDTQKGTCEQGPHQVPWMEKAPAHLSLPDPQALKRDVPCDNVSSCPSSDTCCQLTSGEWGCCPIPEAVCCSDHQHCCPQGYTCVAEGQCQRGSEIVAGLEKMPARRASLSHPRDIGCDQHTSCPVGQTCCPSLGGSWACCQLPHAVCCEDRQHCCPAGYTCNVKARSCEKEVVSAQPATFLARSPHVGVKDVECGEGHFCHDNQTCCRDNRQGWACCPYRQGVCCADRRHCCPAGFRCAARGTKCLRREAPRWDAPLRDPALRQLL
UniProt P39900: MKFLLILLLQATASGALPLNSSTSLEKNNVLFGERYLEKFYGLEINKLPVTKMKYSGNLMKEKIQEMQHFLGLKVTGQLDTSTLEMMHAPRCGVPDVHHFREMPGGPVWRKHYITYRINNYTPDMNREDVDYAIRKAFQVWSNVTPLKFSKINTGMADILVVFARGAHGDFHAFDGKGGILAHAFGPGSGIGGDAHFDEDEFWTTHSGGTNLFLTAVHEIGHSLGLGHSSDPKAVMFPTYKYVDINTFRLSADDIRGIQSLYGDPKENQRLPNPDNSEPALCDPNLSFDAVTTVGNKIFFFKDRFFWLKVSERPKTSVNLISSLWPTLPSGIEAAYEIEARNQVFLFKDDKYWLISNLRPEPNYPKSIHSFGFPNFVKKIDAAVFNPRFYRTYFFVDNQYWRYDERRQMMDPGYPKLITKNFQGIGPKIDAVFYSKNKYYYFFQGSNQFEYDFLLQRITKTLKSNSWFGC

The assay has as its target Progranulin (human (endogenous in primary fetal microglia)) (UniProt P28799). The experiment in a line: co-IP; untreated (control) microglial cell lysates, pre-cleared with protein A agarose, anti-PGRN (C-terminal) rabbit antibody 1 h, protein A agarose overnight at 4°C; immunoblot for PGRN and MMP-12 with clean-blot IP detection reagent. On the technique in general: A western blot detects proteins with antibodies after separation by electrophoresis.

For the substance “Matrix metalloproteinase-12 (macrophage elastase) (from UniProt P39900) (enzyme)”, the binding result is listed as “binds”.
